In the supplement of paper PMC10849652:
Some of the results follow.

The chains behind the UniProt entries cited, without tags or fusion partners. Where a name states a change or a piece, a line headed by the entry shows the natural chain unless it says otherwise.
UniProt P43304: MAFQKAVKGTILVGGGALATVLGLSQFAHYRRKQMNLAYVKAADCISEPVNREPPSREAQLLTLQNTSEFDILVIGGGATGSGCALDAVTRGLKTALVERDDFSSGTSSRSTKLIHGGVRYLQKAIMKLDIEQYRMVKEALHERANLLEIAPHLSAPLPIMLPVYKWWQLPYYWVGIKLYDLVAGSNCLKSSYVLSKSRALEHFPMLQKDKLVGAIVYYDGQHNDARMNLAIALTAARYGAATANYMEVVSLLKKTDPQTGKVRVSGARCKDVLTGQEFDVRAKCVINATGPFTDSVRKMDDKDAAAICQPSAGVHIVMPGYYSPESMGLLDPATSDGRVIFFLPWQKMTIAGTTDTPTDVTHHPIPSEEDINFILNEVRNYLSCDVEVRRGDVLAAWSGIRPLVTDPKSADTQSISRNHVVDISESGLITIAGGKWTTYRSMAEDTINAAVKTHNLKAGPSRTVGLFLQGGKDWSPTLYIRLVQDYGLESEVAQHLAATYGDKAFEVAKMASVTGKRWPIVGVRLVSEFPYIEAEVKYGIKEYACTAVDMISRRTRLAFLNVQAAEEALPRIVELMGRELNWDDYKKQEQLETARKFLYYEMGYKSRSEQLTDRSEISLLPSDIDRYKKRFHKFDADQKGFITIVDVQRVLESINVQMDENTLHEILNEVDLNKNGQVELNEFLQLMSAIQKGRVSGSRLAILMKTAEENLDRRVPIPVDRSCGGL
UniProt Q13439: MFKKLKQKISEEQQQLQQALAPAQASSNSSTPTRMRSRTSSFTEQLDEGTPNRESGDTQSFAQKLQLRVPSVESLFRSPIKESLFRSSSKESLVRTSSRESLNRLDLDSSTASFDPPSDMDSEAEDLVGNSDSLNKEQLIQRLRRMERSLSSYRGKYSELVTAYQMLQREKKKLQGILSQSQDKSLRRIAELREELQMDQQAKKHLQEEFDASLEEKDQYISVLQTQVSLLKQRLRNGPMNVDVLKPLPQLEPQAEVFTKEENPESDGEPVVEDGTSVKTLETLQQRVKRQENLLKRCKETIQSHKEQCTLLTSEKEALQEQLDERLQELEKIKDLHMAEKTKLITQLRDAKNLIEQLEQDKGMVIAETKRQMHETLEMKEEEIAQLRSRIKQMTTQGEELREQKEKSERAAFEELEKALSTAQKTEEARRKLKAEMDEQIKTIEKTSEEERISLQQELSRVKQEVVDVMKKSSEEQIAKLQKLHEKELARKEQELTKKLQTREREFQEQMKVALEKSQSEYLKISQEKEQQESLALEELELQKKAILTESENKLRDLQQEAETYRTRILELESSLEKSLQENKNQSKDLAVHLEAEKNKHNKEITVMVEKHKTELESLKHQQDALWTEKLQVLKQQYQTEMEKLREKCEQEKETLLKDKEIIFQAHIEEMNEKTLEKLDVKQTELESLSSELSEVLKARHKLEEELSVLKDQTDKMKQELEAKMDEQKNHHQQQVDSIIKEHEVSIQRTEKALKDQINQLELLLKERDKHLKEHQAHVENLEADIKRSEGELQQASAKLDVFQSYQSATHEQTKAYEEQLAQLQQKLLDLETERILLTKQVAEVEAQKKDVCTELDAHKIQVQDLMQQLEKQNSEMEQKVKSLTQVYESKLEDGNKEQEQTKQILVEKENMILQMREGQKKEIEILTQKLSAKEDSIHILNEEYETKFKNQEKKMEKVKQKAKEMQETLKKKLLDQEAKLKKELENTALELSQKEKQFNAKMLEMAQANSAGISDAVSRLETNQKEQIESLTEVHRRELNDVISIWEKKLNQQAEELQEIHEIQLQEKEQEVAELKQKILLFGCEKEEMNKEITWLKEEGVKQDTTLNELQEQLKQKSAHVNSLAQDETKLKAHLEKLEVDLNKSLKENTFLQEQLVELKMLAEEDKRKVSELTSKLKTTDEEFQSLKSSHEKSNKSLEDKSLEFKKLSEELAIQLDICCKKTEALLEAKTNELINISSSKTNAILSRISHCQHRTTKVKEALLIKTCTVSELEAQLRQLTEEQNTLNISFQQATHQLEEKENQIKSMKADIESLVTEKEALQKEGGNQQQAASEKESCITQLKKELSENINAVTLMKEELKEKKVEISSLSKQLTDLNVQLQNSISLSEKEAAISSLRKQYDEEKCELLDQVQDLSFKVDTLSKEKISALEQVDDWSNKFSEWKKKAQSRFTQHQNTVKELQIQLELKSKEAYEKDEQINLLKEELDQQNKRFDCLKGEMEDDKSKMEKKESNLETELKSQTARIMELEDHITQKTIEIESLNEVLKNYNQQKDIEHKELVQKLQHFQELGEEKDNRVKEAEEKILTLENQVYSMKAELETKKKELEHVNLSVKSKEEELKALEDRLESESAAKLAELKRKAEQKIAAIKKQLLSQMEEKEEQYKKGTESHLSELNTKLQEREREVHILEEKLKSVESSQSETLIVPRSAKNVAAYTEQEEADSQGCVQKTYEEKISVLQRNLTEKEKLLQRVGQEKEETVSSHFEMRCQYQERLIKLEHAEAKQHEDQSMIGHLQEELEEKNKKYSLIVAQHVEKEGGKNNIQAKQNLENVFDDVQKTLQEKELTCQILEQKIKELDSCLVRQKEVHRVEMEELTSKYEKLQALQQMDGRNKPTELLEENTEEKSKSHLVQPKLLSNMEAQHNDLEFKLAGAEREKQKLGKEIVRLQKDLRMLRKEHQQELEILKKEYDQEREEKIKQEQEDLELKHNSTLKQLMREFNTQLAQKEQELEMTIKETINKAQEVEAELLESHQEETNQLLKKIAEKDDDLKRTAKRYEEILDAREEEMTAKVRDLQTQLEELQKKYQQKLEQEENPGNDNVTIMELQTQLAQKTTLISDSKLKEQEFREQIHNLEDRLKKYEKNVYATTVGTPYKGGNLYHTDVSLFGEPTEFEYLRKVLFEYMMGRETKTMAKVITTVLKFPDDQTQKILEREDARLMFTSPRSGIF
UniProt O75223: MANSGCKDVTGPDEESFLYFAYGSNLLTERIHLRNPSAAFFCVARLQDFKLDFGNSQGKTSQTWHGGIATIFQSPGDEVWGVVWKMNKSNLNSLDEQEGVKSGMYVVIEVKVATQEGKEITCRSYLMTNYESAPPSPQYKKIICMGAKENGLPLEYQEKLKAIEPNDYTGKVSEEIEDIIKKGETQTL
UniProt Q9H4A6: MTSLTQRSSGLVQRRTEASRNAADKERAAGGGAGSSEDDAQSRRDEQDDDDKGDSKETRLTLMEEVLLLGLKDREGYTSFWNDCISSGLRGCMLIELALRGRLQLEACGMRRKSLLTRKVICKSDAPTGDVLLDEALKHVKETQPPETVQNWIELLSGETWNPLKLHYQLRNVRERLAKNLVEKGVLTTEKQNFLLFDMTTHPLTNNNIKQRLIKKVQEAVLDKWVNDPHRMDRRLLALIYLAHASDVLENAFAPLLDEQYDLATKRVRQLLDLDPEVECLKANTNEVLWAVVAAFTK
UniProt O95749: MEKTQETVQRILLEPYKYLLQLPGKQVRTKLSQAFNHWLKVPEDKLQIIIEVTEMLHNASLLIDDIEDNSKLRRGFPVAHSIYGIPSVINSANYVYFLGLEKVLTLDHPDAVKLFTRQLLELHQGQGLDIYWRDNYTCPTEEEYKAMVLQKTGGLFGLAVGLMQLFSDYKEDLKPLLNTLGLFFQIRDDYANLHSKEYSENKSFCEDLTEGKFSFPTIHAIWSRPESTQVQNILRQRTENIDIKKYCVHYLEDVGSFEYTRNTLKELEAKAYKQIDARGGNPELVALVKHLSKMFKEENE
UniProt P49915: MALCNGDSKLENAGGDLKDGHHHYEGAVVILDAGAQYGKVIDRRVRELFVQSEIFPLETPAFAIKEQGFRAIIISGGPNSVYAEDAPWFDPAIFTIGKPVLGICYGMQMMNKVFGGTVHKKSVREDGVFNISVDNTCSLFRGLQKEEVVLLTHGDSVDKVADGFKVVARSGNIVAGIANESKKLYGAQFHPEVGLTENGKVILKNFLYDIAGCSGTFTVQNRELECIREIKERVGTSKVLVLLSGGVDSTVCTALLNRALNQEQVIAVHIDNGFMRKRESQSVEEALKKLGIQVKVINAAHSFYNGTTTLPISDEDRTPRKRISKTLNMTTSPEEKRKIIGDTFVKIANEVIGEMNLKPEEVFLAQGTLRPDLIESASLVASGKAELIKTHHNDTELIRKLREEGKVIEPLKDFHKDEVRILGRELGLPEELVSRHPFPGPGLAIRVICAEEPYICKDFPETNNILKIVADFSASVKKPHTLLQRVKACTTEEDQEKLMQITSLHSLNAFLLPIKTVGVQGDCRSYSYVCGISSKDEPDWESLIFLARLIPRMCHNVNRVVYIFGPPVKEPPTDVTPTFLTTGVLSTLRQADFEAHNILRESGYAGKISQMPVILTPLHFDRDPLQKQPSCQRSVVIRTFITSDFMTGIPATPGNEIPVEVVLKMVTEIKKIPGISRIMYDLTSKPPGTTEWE
UniProt P63218: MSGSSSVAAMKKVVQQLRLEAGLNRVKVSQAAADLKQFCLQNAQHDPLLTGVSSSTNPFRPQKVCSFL
UniProt Q7Z5G4, whole entry, looked up: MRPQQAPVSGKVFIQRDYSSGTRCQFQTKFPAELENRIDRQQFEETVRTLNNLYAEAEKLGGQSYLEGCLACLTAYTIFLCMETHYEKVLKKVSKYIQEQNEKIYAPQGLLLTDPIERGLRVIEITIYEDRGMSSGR
UniProt Q9BVM4: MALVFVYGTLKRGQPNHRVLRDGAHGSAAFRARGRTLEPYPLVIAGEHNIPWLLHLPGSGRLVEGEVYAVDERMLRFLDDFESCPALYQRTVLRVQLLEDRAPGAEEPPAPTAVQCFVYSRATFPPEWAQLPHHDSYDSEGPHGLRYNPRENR
UniProt Q14691: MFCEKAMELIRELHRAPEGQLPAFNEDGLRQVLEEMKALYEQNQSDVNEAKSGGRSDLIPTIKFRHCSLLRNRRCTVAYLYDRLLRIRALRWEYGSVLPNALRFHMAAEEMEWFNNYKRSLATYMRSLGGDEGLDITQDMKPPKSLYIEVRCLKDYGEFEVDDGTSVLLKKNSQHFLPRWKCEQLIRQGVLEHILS
UniProt Q5VW38: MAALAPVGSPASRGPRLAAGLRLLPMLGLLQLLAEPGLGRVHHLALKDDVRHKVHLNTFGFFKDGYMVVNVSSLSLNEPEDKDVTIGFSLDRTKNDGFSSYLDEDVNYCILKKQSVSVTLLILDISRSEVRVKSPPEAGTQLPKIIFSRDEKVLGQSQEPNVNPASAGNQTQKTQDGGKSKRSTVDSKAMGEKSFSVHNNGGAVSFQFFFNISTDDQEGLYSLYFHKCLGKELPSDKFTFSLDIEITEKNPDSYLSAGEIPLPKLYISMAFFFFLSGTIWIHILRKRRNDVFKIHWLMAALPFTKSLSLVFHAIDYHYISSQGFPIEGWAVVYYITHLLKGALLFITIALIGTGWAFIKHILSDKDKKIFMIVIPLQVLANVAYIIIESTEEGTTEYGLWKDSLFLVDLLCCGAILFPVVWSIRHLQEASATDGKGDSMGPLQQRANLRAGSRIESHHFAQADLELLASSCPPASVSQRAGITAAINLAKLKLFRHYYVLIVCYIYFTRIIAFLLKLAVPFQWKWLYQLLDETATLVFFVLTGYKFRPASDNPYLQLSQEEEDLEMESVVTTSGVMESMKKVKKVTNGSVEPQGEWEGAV
UniProt O60547: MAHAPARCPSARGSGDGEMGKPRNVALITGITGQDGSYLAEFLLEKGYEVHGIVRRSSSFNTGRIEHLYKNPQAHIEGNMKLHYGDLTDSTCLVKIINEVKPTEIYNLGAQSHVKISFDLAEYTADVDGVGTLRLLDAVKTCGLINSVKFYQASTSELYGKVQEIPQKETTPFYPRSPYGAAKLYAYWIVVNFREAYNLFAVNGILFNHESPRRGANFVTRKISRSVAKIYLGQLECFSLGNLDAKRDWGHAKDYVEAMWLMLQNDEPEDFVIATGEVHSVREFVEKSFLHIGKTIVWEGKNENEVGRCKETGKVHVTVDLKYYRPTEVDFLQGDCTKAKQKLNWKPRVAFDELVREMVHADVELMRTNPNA
UniProt Q9BXV9: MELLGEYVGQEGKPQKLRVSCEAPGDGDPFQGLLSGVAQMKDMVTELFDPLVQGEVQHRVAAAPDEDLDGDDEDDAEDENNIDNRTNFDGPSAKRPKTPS
UniProt Q9Y5P6: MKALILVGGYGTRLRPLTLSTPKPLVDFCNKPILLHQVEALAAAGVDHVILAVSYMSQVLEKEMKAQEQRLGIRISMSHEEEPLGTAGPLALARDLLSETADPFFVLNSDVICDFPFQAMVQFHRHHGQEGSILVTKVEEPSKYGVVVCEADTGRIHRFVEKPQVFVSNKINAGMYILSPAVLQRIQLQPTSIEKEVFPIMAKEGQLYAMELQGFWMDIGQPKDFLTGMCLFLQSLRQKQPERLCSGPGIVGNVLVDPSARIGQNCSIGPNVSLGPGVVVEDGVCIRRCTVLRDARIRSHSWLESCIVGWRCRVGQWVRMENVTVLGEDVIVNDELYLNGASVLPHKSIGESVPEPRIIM
UniProt Q86SX6: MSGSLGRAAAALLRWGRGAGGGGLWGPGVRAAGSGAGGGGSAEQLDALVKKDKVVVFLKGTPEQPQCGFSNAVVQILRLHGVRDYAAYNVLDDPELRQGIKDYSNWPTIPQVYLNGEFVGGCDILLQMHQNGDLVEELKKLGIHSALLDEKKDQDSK

Experiments:
Assay in all cases: log2 fold change, soluble protein after heating vs DMSO (PISA); higher = thermal stabilisation; K562 lysate, 10 uM; active = over 0.2 and 3.5 SD of the protein, either way, in both replicates (recomputed)
vemurafenib = compound: CCCS(=O)(=O)Nc1ccc(F)c(C(=O)c2c[nH]c3ncc(-c4ccc(Cl)cc4)cc23)c1F [vemurafenib]
Outline: (§1)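 K562 pellets were dounce-homogenised in PBS pH 7.4 containing 1 mM MgCl2, and the crude extract, at 1 mg/mL protein, was exposed to 10 μM compound for 30 min. Aliquots were heated for 3 min across 48°C-58°C, pooled, brought to 0.5% NP-40 at 4°C and spun at 21,000xg for 90 min, with the supernatant taken as soluble protein. TMTpro 16plex LC-MS/MS with equalised channel sums quantified that protein. Values are log-two fold changes in thermal stability relative to solvent controls, taken from duplicates.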

[1] = compound: CCCS(=O)(=O)Nc1ccc(F)c(C(=O)c2c[nH]c3ncc(Cl)cc23)c1F
Outline: as §1

barasertib = compound: CCN(CCCOc1ccc2c(Nc3cc(CC(=O)Nc4cccc(F)c4)[nH]n3)ncnc2c1)CCOP(=O)(O)O [barasertib]
Outline: as §1

[2] = compound: CC[C@@H]1C(=O)N(C)c2cnc(Nc3ccc(C(=O)NC4CCN(C)CC4)cc3OC)nc2N1C1CCCC1
Outline: as §1

volasertib = compound: CC[C@@H]1C(=O)N(C)c2cnc(Nc3ccc(C(=O)N[C@H]4CC[C@H](N5CCN(CC6CC6)CC5)CC4)cc3OC)nc2N1C(C)C [volasertib]
Outline: as §1

[3] = compound: CCn1c(C(=O)N(C2CC2)C2CC2)cc2c3c(ncn3C)c(Nc3cc(C)n(C)n3)nc21
Outline: as §1

[4] = compound: CCn1cc(-c2ccnc3[nH]c(-c4cccc(CN(C)C)c4)cc23)c(-c2ccc(NC(=O)N(C)C)cc2)n1
Outline: as §1

[5] = compound: CN1CCC(CNc2ccc3ncc(-c4cccc(OC(F)(F)F)c4)n3n2)CC1
Outline: as §1

saracatinib = compound: CN1CCN(CCOc2cc(OC3CCOCC3)c3c(Nc4c(Cl)ccc5c4OCO5)ncnc3c2)CC1 [saracatinib]
Outline: as §1

sotrastaurin = compound: CN1CCN(c2nc(C3=C(c4c[nH]c5ccccc45)C(=O)NC3=O)c3ccccc3n2)CC1 [sotrastaurin]
Outline: as §1

Measured: log2 fold change

GNL3L (UniProt Q9NVN8)
inactive: vemurafenib -0.032 | [1] -0.225 | barasertib -0.068 | [2] 0.114 | volasertib 0.104 | [3] 0.003 | [4] 0.008 | [5] -0.015 | saracatinib -0.037 | sotrastaurin 0.065

GPCPD1 (UniProt Q9NPB8)
inactive: vemurafenib 0.023 | [1] 0.038 | barasertib 0.013 | [2] -0.05 | volasertib -0.048 | [3] 0 | [4] -0.046 | [5] -0.016 | saracatinib 0 | sotrastaurin -0.014

GPD2 (UniProt P43304)
inactive: vemurafenib 0.028 | [1] -0.002 | barasertib -0.001 | [2] 0.002 | volasertib 0.024 | [3] 0.03 | [4] 0.003 | [5] -0.001 | saracatinib 0.012 | sotrastaurin 0.005

GOLGA4 isoform 5 (UniProt Q13439)
inactive: vemurafenib 0.026 | [1] 0.022 | barasertib 0.031 | [2] 0.048 | volasertib 0.006 | [3] -0.008 | [4] -0.028 | [5] 0.012 | saracatinib 0.021 | sotrastaurin -0.002

GGCT (UniProt O75223)
inactive: vemurafenib -0.05 | [1] -0.004 | barasertib -0.04 | [2] 0.016 | volasertib 0.051 | [3] -0.026 | [4] 0.026 | [5] 0.018 | saracatinib 0.004 | sotrastaurin -0.027

GOLPH3 (UniProt Q9H4A6)
inactive: vemurafenib -0.007 | [1] 0.015 | barasertib 0.036 | [2] -0.016 | volasertib -0.041 | [3] 0.018 | [4] -0.029 | [5] -0.103 | saracatinib 0.021 | sotrastaurin -0.053

GGPS1 (UniProt O95749)
inactive: vemurafenib 0.047 | [1] -0.013 | barasertib -0.039 | [2] -0.004 | volasertib -0.016 | [3] -0.022 | [4] 0.021 | [5] -0.034 | saracatinib -0.019 | sotrastaurin -0.004

GOLIM4 (UniProt O00461)
inactive: vemurafenib 0.026 | [1] 0.013 | barasertib 0.012 | [2] 0.026 | volasertib 0.004 | [3] -0.051 | [4] 0.116 | [5] -0.155 | saracatinib 0.018 | sotrastaurin 0.01

GMPS (UniProt P49915)
inactive: vemurafenib -0.006 | [1] -0.011 | barasertib -0.008 | [2] -0.05 | volasertib -0.046 | [3] -0.011 | [4] 0.128 | [5] -0.047 | saracatinib 0.014 | sotrastaurin -0.005

GPA33 (UniProt Q99795)
active: [4] -0.925 | [5] 0.612
inactive: vemurafenib -0.038 | [1] -0.014 | barasertib -0.047 | [2] -0.011 | volasertib 0.081 | [3] -0.032 | saracatinib -0.005

GGT1 (UniProt P19440)
inactive: vemurafenib 0.001 | [1] -0.01 | barasertib -0.007 | [2] 0.062 | volasertib 0.042 | [3] 0.066 | [4] -0.038 | [5] -0.01 | saracatinib 0.016 | sotrastaurin 0.005

GLB1 (UniProt P16278)
inactive: vemurafenib -0.034 | [1] 0.012 | barasertib -0.029 | [2] 0.02 | volasertib -0.045 | [3] -0.017 | [4] -0.066 | [5] 0.019 | saracatinib -0.032 | sotrastaurin 0.043

GNG5 (UniProt P63218)
inactive: vemurafenib 0.019 | [1] -0.014 | barasertib 0.195 | [2] -0.072 | volasertib 0.046 | [3] 0.062 | [4] 0.08 | [5] -0.097 | saracatinib 0.041 | sotrastaurin -0.067

Fetched one by one from above (2):
GNG5 (UniProt P63218)
inactive: vemurafenib 0.019 | [1] -0.014 | barasertib 0.195 | [2] -0.072 | volasertib 0.046 | [3] 0.062 | [4] 0.08 | [5] -0.097 | saracatinib 0.041 | sotrastaurin -0.067

GGT1 (UniProt P19440)
inactive: vemurafenib 0.001 | [1] -0.01 | barasertib -0.007 | [2] 0.062 | volasertib 0.042 | [3] 0.066 | [4] -0.038 | [5] -0.01 | saracatinib 0.016 | sotrastaurin 0.005

Later entries:

GOLGA7 (UniProt Q7Z5G4)
inactive: vemurafenib -0.111 | [1] 0.023 | barasertib 0.036 | [2] -0.001 | volasertib 0.025 | [3] -0.033 | [4] 0.009 | [5] 0.013 | saracatinib 0.031 | sotrastaurin -0.05

GNB3 (UniProt P16520)
inactive: vemurafenib 0.06 | [1] -0.084 | barasertib 0.021 | [2] 0.017 | volasertib 0.061 | [3] -0.055 | [4] -0.123 | [5] 0.046 | saracatinib -0.099 | sotrastaurin 0.028

GLYR1 (UniProt Q49A26)
inactive: vemurafenib -0.059 | [1] 0.019 | barasertib 0.162 | [2] 0.045 | volasertib -0.005 | [3] 0.011 | [4] -0.088 | [5] 0.038 | saracatinib 0.05 | sotrastaurin 0.064

GOLGB1 (UniProt Q14789)
inactive: vemurafenib -0.001 | [1] 0.003 | barasertib 0.004 | [2] 0.006 | volasertib 0.005 | [3] -0.007 | [4] 0.063 | [5] -0.037 | saracatinib 0.041 | sotrastaurin -0.012

GGACT (UniProt Q9BVM4)
inactive: vemurafenib 0.08 | [1] 0.035 | barasertib -0.078 | [2] -0.024 | volasertib 0.064 | [3] -0.032 | [4] -0.152 | [5] 0.01 | saracatinib 0.025 | sotrastaurin -0.095

GNA11 (UniProt P29992)
inactive: vemurafenib 0.017 | [1] -0.003 | barasertib 0.031 | [2] -0.038 | volasertib 0.008 | [3] 0.005 | [4] -0.093 | [5] 0.062 | saracatinib -0.006 | sotrastaurin -0.018

GINS1 (UniProt Q14691)
inactive: vemurafenib -0.027 | [1] 0.01 | barasertib 0.04 | [2] 0.015 | volasertib -0.023 | [3] -0.003 | [4] 0.018 | [5] 0.015 | saracatinib -0.022 | sotrastaurin -0.005

GOLGA6B (UniProt A6NDN3)
inactive: vemurafenib 0.015 | [1] -0.003 | barasertib 0.2 | [2] 0.149 | volasertib -0.006 | [3] 0.078 | [4] -0.086 | [5] 0.102 | saracatinib 0.101 | sotrastaurin -0.004

GPR107 isoform 2 (UniProt Q5VW38)
inactive: vemurafenib -0.025 | [1] 0.02 | barasertib -0.004 | [2] 0.064 | volasertib 0.03 | [3] -0.037 | [4] -0.067 | [5] 0.053 | saracatinib -0.005 | sotrastaurin 0.039

GINS3 (UniProt Q9BRX5)
inactive: vemurafenib 0.002 | [1] -0.004 | barasertib 0.15 | [2] -0.05 | volasertib 0.011 | [3] 0.027 | [4] -0.017 | [5] 0.002 | saracatinib 0 | sotrastaurin -0.004

GMDS (UniProt O60547)
inactive: vemurafenib 0.057 | [1] 0.012 | barasertib 0.027 | [2] -0.088 | volasertib -0.034 | [3] -0.023 | [4] 0.019 | [5] 0.042 | saracatinib -0.033 | sotrastaurin 0.019

GID4 (UniProt Q8IVV7)
inactive: vemurafenib 0.019 | [1] -0.031 | barasertib -0.044 | [2] 0.078 | volasertib 0.051 | [3] 0.021 | [4] -0.112 | [5] 0.011 | saracatinib -0.144 | sotrastaurin -0.059

GNAI3 (UniProt P08754)
inactive: vemurafenib 0.108 | [1] -0.003 | barasertib 0.083 | [2] -0.044 | volasertib -0.035 | [3] -0.015 | [4] 0.016 | [5] 0.008 | saracatinib 0.098 | sotrastaurin 0.021

GON7 (UniProt Q9BXV9)
inactive: vemurafenib 0.097 | [1] -0.115 | barasertib 0.196 | [2] -0.056 | volasertib 0.064 | [3] 0.024 | [4] -0.029 | [5] -0.052 | saracatinib 0.002 | sotrastaurin -0.062

GMPPB isoform 2 (UniProt Q9Y5P6)
inactive: vemurafenib 0.018 | [1] 0.053 | barasertib 0.005 | [2] -0.038 | volasertib -0.024 | [3] -0.038 | [4] -0.051 | [5] 0.018 | saracatinib 0.009 | sotrastaurin -0.008

GLRX5 (UniProt Q86SX6)
inactive: vemurafenib -0.005 | [1] 0.07 | barasertib 0.237 | [2] 0.088 | volasertib -0.001 | [3] -0.067 | [4] 0.031 | [5] -0.175 | saracatinib -0.127 | sotrastaurin 0.088

GPAT4 (UniProt Q86UL3)
inactive: vemurafenib -0.033 | [1] 0.019 | barasertib -0.016 | [2] 0.057 | volasertib 0.033 | [3] 0.005 | [4] -0.094 | [5] 0.038 | saracatinib -0.005 | sotrastaurin 0.011
